# Results of single-concentration screens

Amino acid sequences for entries named in this document (tags omitted). Residues count along the entry.
UniProt I6X8D2, whole entry: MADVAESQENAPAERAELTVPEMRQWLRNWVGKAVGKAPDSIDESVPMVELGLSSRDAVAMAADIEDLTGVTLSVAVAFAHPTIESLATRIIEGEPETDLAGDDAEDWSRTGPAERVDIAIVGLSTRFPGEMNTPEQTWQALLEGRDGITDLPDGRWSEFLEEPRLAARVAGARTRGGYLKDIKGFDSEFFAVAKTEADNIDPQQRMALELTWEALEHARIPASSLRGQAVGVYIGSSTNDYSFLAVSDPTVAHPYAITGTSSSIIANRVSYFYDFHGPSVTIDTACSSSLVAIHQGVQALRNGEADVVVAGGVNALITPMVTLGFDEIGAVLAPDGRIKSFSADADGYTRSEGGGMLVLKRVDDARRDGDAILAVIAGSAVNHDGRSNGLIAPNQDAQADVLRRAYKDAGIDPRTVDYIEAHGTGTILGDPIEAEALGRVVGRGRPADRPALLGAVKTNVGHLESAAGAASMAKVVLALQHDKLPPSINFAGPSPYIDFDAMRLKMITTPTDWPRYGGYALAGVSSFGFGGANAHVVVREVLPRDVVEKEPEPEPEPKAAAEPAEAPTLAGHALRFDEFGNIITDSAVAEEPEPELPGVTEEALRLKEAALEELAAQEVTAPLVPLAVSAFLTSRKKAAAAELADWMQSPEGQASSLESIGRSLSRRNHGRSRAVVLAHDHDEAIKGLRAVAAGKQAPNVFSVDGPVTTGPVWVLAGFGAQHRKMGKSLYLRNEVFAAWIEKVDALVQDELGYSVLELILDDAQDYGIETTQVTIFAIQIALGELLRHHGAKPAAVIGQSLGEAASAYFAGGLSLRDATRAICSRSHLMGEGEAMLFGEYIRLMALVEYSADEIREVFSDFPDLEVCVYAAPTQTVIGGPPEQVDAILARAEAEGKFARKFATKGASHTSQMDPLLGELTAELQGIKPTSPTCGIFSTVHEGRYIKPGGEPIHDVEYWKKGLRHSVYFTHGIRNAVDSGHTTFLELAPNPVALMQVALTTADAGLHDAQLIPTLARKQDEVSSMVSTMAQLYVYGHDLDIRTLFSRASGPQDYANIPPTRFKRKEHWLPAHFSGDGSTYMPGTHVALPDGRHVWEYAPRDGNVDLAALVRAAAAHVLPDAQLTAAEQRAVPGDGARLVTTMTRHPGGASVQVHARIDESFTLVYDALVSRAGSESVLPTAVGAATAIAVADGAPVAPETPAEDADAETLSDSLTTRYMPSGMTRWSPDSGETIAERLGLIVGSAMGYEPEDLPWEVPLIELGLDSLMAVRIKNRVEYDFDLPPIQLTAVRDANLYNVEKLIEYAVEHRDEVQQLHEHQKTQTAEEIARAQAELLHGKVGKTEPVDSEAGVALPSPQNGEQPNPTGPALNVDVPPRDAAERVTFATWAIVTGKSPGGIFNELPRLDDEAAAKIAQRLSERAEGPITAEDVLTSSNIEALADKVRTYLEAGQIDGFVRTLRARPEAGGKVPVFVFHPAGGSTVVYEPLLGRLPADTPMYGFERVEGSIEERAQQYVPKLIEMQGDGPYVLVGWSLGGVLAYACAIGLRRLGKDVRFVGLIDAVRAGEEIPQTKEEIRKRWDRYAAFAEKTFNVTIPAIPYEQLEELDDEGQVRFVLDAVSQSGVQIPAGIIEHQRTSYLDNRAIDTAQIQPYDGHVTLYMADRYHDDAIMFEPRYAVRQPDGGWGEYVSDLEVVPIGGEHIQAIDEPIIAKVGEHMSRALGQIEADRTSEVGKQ
UniProt A4I591, 1-473: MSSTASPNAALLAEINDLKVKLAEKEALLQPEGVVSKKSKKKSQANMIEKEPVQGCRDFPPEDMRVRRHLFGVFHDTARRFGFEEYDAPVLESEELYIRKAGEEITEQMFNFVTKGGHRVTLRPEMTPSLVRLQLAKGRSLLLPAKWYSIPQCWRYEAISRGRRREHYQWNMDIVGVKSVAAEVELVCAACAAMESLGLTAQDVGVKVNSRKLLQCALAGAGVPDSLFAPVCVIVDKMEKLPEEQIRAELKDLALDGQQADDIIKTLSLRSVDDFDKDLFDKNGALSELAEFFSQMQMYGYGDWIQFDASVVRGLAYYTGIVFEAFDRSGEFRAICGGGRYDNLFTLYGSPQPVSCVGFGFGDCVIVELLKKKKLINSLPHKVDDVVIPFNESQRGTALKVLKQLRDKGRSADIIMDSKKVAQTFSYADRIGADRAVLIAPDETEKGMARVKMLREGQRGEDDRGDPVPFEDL

Pks13 thioesterase: 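Enzyme assay of the thioesterase domain of polyketide synthase 13; the read-out is not stated. Target: Polyketide synthase Pks13, Mycobacterium tuberculosis (UniProt I6X8D2). Tested at 30 µM. The record gives no direction; the compounds picked for IC50 retests had high values, so higher reads as stronger inhibition. About 67,000 compounds were tested under these conditions; 0.46% (about 300) showed 50% or more at least once.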
LiHisRS: 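Histidine-tRNA ligase, Leishmania infantum (UniProt A4I591). Enzyme assay of histidyl-tRNA synthetase; the read-out is not stated. Compounds at 30 µM. The record gives no direction; compounds that gave an IC50 in retests scored well above the rest, so higher reads as stronger inhibition. The assay is labelled LdHisRS but filed under L. infantum. About 69,000 compounds were tested under these conditions; 0.6% (about 410) showed 50% or more at least once.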

Each number is a percent effect as filed. The controls that fix the scale are not given in the record; negative values are as filed. This is an unselected part of the compounds tested.

compound	Pks13 thioesterase	LiHisRS
CCC(=O)N1CCC2(COCc3c(C)nc(N(C)C)nc32)C1 (stereo not drawn)	-8.361	1.923
CNC(=O)CCc1cc(C)nc(C2CCCCN2)n1 (stereo not drawn)	6.327	14.43
COCC(=O)N1CCC2(CCCN(Cc3ccc(Cl)cc3)CC2)CC1	-8.937	25.83
CN(C)C(=O)[C@@H]1CC[C@@H]2[C@@H](CCN2Cc2nccs2)O1	-9.53	0.9174
O=C(O)[C@]12CCCN(Cc3ccccn3)[C@@H]1CCN(c1cnccn1)C2	95.43	8.333
CN(C)CCNC(=O)c1nc2c(o1)CN(c1ncccn1)C2	-29.62	18.97
COc1ccc(CN2CC[C@@H](O)[C@@H]2Cc2ccccc2)cc1	-32.96	-1.942
COCCC(=O)NCCn1nc(C2CCNC2)c2cccnc21 (stereo not drawn)	-24.64	3.125
O=C1CN(c2ccc(CNC(=O)Nc3nccs3)cc2)CCN1	-0.6201	22.12
Cn1ccnc1N1CCN(C(=O)Cc2ccc(Cl)cc2)CC1	-22.81	16.44
CCS(=O)(=O)N1CCC2(CC1)CN(c1cccnc1)C(=O)CO2	-10.78	10
CN(Cc1ccco1)[C@@H]1CN(Cc2ccc(F)cc2)[C@@H]2CCCO[C@H]12	3.721	17
CC(C)C1Nc2ccccc2C(=O)N1CC(=O)Nc1nc2c(s1)CCC2 (stereo not drawn)	8.499	10.87
CN(C)S(=O)(=O)N1CC(c2ccnc(Nc3ccccn3)n2)C1	0.4198	8.571
CCOc1ncccc1CNC(=O)N1CCCC1c1ccsc1 (stereo not drawn)	3.97	5.357
O=C(Nc1nccs1)NC1CCOc2ccccc21 (stereo not drawn)	-3.054	9.677
CN(Cc1cccnc1)c1nc(-c2ccccn2)nc2c1CCNCC2	-33.41	23.29
CC(C(=O)NCCN1CCOCC1)n1cncn1 (stereo not drawn)	-17.24	7.895
O=C(N1CCOCC1)[C@@]12CCO[C@@H]1CCN(Cc1ccccc1F)C2	-22.55	0
COc1ccc(-n2cc(CNC(=O)c3ccc[nH]3)nn2)cc1	-1.665	54.17
CSc1ccc(NCC(=O)NCC2CC2)cc1F	2.237	10
c1cncc(CN2CCc3c(CNc4nccs4)n[nH]c3C2)c1	-4.665	2.564
Cc1cnn(C2CCCN(C(=O)c3cn(-c4ccccc4)nn3)C2)c1 (stereo not drawn)	-8.526	11.97
COc1cc(C2C3=C(COC3=O)Nc3[nH]nc(C)c32)cc(Br)c1O (stereo not drawn)	-45.38	36.67
COc1ccc(OCC(C)NS(C)(=O)=O)cc1 (stereo not drawn)	-7.787	2.564
O=C(O)c1c(-c2ccncc2)ncc2c1CCN(CC1CCOC1)C2 (stereo not drawn)	-2.376	1.98
CC(=O)c1ccn(CC(=O)Nc2nn(CC3CC3)c3ccccc23)n1	-6.26	8.046
CN(C)C(=O)c1csc(-c2ccoc2)n1	-7.48	11.11
Cc1noc(NC(=O)c2ccc(Br)o2)n1	-26.67	6.14
CC(C)c1ccc2c(c1)CCCN2C(=O)CN(C)S(C)(=O)=O	1.046	19.75
CCc1cc(CN(C)C(=O)c2cnc3c(c2)nc(N)n3CC)on1	-35.51	21.52
CCn1nc(C)c2c1cnn2CCNS(=O)(=O)CC	-8.727	20.99
CN1CCC(N(CCc2ccccc2)Cc2noc(C3CC3)n2)CC1	-6.092	14.17
COc1ccc(CN2CCC3(CC(=O)N(c4cncnc4)C3)C2)cc1 (stereo not drawn)	-3.982	12.03
CC(=O)N1CCCC(c2ccc(Br)cn2)C1 (stereo not drawn)	-6.187	-14
CC(C)NC(=O)N1CCN2C(=O)OC[C@H]2C1	10.79	16.22
O=S1(=O)NCC2(CCN(c3ncccn3)CC2)COc2ccccc21	3.152	17.24
CN(C)C(=O)c1ccc(C2CCCNC2)nc1 (stereo not drawn)	-3.987	8.966
CN(Cc1ccccc1)CC1(O)CCCN(CC(C)(C)C)C1=O (stereo not drawn)	-32.32	8.654
Cc1n[nH]c(C)c1-c1nccnc1CC1CCNC1 (stereo not drawn)	3.237	10.74
O=C(NCCNc1ccc(C(F)(F)F)cn1)c1ccc(Br)cc1	-6.368	13.27
COc1ccc(C)cc1Nc1nc2c(C)nn(C)c2c(=O)n1C	-16.18	15.93

Repeated from the top, 2 entries:

- CCC(=O)N1CCC2(COCc3c(C)nc(N(C)C)nc32)C1 (stereo not drawn) : Pks13 thioesterase: -8.361%; LiHisRS: 1.923%
- CNC(=O)CCc1cc(C)nc(C2CCCCN2)n1 (stereo not drawn) : Pks13 thioesterase: 6.327%; LiHisRS: 14.43%

Source: ChEMBL document CHEMBL3988442, “University of Dundee, Small-Polar-MMV Screening Library” (2021).